Data on two molecules can be found in publication PMC9671898.

Assay [1] has as its target T1, cCFP-U2AF65A (Arabidopsis thaliana) (UniProt O23212).
T1 sequence: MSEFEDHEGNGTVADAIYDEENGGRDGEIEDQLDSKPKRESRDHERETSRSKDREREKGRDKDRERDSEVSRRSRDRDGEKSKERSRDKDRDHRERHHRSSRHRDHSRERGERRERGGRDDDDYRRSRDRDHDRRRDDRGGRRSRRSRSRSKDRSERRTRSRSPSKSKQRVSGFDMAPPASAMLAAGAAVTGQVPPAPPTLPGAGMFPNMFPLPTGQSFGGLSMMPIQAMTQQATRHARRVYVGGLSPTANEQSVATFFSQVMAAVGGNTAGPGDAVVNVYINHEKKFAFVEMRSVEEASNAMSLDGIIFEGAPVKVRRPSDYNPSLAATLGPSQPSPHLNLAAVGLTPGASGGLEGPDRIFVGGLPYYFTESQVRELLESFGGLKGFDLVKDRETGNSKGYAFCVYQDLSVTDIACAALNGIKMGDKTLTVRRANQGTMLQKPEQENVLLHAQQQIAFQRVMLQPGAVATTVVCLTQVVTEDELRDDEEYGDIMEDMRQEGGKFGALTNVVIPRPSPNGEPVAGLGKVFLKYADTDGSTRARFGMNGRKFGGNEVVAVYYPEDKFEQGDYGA
Nature of the assay: split reporter; BiFC: fusions to CFP(155-238) and YFP(1-172) co-infiltrated into N. benthamiana leaves; plants left under long days, white light, 3 days.

Assay [2] deals with N-terminal domain of CRY2 fused to the GAL4 DNA binding domain (pBridge) (Arabidopsis thaliana). Nature of the assay: two-hybrid; CRY2 fragments with CIS1: β-galactosidase assay of Y190 colonies patched in duplicate on -Leu/-Thr plates, one duplicate under blue light (30 μmol m^-2 s^-1) at 28 °C for 2-3 days, the other wrapped in aluminum foil.

Results are given in words; binding and its absence hold for the method and conditions named. For some assays here: Binding can be weak; no strength is given. Tags and fused reporters may be left off the sequences shown. For some assays here: In cells and extracts the contact can be indirect.

Consider “CIS1(ΔN)-nYFP (Arabidopsis thaliana) (domain or fragment)”, for which the binding entry in assay [1] is “no binding”.

B1: CIS1 (CRY2 … SPLICING FACTOR 1) fused to the GAL4 activation domain (pGADT7) (protein, UniProt Q94C11 1-443)
chain: MDKGAPPSIFVNDGSFMERFRQLQQEKDKDKDKVVQVEDSKPVKIISNPKPAANKISIGLKPNDAQKKGGKLAFSLKQKSKLLAPPVKLGTEEDEDDEDVKHEQGFGSVKRQKLEQRDTPVKSAKVSDVAPPPPSDPTVKKVADKLASFVAKHGRPFEHITRQKNPGDTPFKFLFDENCADYKYYVFRLAEEEKLISQTKDSGVLHSGDAGSRTSTAAIPLQKPAYQQTGYQIPASALYDTPVEPGASSRSAQASITRPSDSDSFSGPRGADPLSMMEFYMKKAAQEEKMRRPRQSKDEMPPPASLQGPSETSSTDPGKRGHHMGDYIPLEELDKFLSKCNDAAAQKATKEAAEKAKIQADNVGHKLLSKMGWKEGEGIGSSRKGMADPIMAGDVKTNNLGVGASAPGEVKPEDDIYEQYKKRMMLGYKHRPNPLGNPRKAYY
For B1, the binding entry in assay [2] was “binds”.
